Results published in patent US4873342A, “Dipeptide derivative and synthesis and use thereof” (Suntory Limited, priority 1985, dated 1989).

System: Experimental Amnesia caused in Rats by Scopolamine
Assay: Preventive effect against experimental amnesia caused in rats by scopolamine (passive avoidance, intraperitoneal administration)
Type: in vivo, Wister male rats
Conditions: i.p., scopolamine 3 mg/kg i.p. after learning
Procedure: Several of the anti-prolyl endopeptidase compounds according to the present invention were checked for their ability to prevent the inhibition of long-term memory fixation by scopolamine. […] One hour after the administration, electric shocks were applied to the rats so that they would acquire passive avoidance learning. Immediately thereafter, scopolamine was administered intraperitoneally to each rat in an amount of 3 mg per kg of body weight.
The results of the test were assessed both 24 hours and 48 hours after the administration of scopolamine. The number of amnesic rats and of sound rats was counted for each of the control group (rats to which the test compounds were not administered but to which only scopolamine and physiological saline were administered intraperitoneally) and the treated group (rats to which both the test compound and scopolamine were administered).

CCCCC(NC(=O)CCCc1ccccc1)C(=O)N1CCCC1C=O (stereo not shown) [SUAM 1333, N--(4-phenyl)butanoyl--norLeu--Pro--CHO]
Learning: Initial avoidance time (20 μg/kg): 1.7 s | Learning: No. of avoidances during learning (20 μg/kg): 2.3

C[C@H](NC(=O)CCCc1ccccc1)C(=O)N1CCC[C@H]1C=O [SUAM 1110, N--(4-phenyl)butanoyl--Ala--Pro--CHO]
Learning: Initial avoidance time (250 μg/kg): 5.2 s | Learning: No. of avoidances during learning (250 μg/kg): 3.0 | Learning: Initial avoidance time (1 mg/kg): 3.8 s | Learning: No. of avoidances during learning (1 mg/kg): 1.6

CC(C)CC(NC(=O)CCCc1ccccc1)C(=O)N1CCCC1C=O (stereo not shown) [SUAM 1115, N--(4-phenyl)butanoyl--Leu--Pro--CHO]
Learning: Initial avoidance time (25 μg/kg): 2.7 s | Learning: No. of avoidances during learning (25 μg/kg): 2.4 | Learning: Initial avoidance time (100 μg/kg): 2.5 s | Learning: No. of avoidances during learning (100 μg/kg): 3.0 | Learning: Initial avoidance time (250 μg/kg): 1.5 s | Learning: No. of avoidances during learning (250 μg/kg): 3.0

O=C[C@@H]1CCCN1C(=O)[C@@H]1CCCN1C(=O)CCCc1ccccc1 [SUAM 1231, N--(4-phenyl)butanoyl--Pro--Pro--CHO]
Learning: Initial avoidance time (20 μg/kg): 3.1 s | Learning: No. of avoidances during learning (20 μg/kg): 2.4

CC(C)[C@H](NC(=O)CCCc1ccccc1)C(=O)N1CCC[C@H]1C=O [SUAM 1117, N--(4-phenyl)butanoyl--Val--Pro--CHO]
Learning: Initial avoidance time (25 μg/kg): 1.9 s | Learning: No. of avoidances during learning (25 μg/kg): 2.2 | Learning: Initial avoidance time (100 μg/kg): 3.2 s | Learning: No. of avoidances during learning (100 μg/kg): 3.2 | Learning: Initial avoidance time (250 μg/kg): 2.4 s | Learning: No. of avoidances during learning (250 μg/kg): 2.4 | Learning: Initial avoidance time (1 mg/kg): 3.8 s | Learning: No. of avoidances during learning (1 mg/kg): 2.2
